Measured values as given in article PMC4305328.
These are yes or no findings as the source states them, for the method shown. In cells and extracts the contact can be indirect. Some entries that bind do so weakly or less than the wild type.

Sequences of proteins named here, by UniProt entry; tags and fusion partners are left off.
UniProt Q5A7S7: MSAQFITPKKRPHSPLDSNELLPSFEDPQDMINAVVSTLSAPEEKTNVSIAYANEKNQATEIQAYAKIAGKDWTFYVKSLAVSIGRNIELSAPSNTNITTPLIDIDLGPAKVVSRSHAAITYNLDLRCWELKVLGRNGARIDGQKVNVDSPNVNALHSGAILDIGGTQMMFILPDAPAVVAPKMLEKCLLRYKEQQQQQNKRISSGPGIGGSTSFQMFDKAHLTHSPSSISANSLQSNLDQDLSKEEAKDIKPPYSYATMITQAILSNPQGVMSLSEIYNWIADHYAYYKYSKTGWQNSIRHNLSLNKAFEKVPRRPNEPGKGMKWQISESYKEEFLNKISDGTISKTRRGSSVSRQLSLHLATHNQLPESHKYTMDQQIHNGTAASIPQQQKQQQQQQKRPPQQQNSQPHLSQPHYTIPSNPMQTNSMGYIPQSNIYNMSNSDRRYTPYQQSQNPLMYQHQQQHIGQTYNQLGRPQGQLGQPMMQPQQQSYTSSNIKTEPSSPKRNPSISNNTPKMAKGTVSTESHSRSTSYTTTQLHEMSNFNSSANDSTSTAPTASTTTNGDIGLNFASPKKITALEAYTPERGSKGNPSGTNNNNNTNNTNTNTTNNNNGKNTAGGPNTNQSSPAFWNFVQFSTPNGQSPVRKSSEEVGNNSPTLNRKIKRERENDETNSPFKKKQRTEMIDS
UniProt Q5ALL8: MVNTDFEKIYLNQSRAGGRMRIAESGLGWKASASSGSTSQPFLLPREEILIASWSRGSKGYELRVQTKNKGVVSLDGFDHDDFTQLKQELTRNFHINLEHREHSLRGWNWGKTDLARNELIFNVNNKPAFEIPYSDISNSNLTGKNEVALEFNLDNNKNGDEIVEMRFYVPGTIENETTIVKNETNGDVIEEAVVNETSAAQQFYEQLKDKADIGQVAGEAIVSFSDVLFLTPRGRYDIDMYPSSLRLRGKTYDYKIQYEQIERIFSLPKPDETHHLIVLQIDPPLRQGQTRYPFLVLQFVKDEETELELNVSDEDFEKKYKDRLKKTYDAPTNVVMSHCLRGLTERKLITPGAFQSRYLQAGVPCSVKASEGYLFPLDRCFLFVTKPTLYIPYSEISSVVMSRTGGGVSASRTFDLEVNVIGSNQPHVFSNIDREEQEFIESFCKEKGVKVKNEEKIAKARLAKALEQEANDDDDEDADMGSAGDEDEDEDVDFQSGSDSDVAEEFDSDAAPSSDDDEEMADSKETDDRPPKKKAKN

Target: Fkh2-YFP (C. albicans) (UniProt Q5A7S7)
Experiment: co-IP; Fkh2-YFP/GFP precipitated with anti-GFP antibody on protein-G Dynabeads from 2 mg total protein, 40 min post hyphal induction; washed twice with lysis buffer containing 150 mM NaCl; anti-HA blot; control strain expressing only the HA-tagged protein

For Pob3-HA (from UniProt Q5ALL8 1-538), the binding was “binds”.
